Assay results reported in paper doi:10.1101/2024.02.17.580811.
These are yes or no findings as the source states them, for the method shown. In cells and extracts the contact can be indirect. Here binding means that the protein was enriched with, or labelled near, the bait; the list need not be complete. A no says only that the protein was not detected with the bait. Tags and fused reporters may be left off the sequences shown.

The chains behind the UniProt entries cited, without tags or fusion partners.
UniProt P24782: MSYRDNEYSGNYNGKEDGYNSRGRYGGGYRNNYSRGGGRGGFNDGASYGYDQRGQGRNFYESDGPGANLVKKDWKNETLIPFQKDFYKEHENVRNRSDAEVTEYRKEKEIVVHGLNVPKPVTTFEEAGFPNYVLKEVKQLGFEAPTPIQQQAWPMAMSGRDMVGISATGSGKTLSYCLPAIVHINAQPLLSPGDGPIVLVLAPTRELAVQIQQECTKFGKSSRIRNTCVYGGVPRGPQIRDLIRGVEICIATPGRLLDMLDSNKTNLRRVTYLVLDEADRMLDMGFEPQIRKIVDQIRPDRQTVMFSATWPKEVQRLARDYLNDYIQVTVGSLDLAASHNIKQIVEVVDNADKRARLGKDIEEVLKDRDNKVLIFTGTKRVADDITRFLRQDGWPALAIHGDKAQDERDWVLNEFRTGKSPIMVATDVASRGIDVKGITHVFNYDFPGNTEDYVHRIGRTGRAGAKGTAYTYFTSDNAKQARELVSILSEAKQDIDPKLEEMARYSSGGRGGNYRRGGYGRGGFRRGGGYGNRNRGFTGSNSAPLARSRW

T1: Srp2-HTP (S. pombe) (UniProt P78814)
T1 sequence: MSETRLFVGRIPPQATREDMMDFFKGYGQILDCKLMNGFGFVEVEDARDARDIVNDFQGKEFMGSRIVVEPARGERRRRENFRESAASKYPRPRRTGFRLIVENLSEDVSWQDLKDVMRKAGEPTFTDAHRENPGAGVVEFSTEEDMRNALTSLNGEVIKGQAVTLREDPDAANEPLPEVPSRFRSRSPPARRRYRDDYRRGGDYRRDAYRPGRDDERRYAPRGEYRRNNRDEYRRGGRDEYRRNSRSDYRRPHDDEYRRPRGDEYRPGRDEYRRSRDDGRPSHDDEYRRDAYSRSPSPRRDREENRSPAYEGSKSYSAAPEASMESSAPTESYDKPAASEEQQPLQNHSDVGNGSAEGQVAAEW

B1: Top3 (enzyme, UniProt O60126 1-622)
chain: MRVLCVAEKNSIAKSVASILGGGHVRRRDTRSKYVKNYDFSFNFGGNVGSSDVTMTSVSGHLTEASFPSEYSSWSSVPQDVLFDAQIITSVSKNAEVLADNIKKEARNAQYLYIWTDCDREGEHIGVEISNVARASNPSIQVIRADFNNLERSHIISAAKRPRDVSKNAADAVDARIELDFRLGAIFTRLQTIQLQKSFDILQNKIISYGPCQFPTLGFVVDRWQRVEDFVPETYWHLRFVDKRQGKTIQFNWERAKVFDRLTTMIILENCLECKTAKVVNITQKPKTKYKPLPLSTVELTKLGPKHLRISAKKTLELAENLYTNGFVSYPRTETDQFDSSMNLHAIIQKLTGAQEWDSYAEGLLAGDYRPPRKGKHNDRAHPPIHPVQMVHRSALPSQDHWKVYELITRRFLACCSDNAKGAETLVQVKMEEELFSKKGLLVTEKNYLEVYPYEKWESSDQLPEYRLHEEFQPHILDMMDSSTSSPSYITEPELIALMDANGIGTDATMAEHIEKVQEREYVIKRKKRGQGVTEFVPSSLGVALAKGYDEIGLEWSLTKPFLRKEMEVQLKNIENGQLNRNVLVHMILTQFRDVFHLTKQRFDCLKNSCRVYLMSHNEPQT
B2: Rec12 (enzyme, UniProt P40384 1-345)
chain: MNSNDKKKVVRSWIEQFVHDFVEQLSKPTKDSVNVALKRRKHNSWNGSLDSKANERQKVKVFSFPRNETTIAQLFRVLDCVHEAVISDTVITKRDIYYRDVDLFKRQTVVDELLGDISNTIGCSRSDLNVEASAKGLVFGSIHIALENGTVITATKPLLISHHRISSITSTAKWVLVIEKEAVFQTLTEEALADTIIVTAKGFPDLMTRKFLVKLAKALPDAKFFGIFDWDPHGLCIYSCFKYGSNAYSHEPHSQLRNLQLLGPLYEDIFNKNQEFSLKLNKRDIKMITTLLQFEGFQKEPVVREQLQRMLFIQKKAEIQAILEFPSWIKGKLADADKSGKHSVR
B3: histone lysine acetyltransferase Rtt109 (enzyme, UniProt Q9Y7Y5 1-369)
chain: MPDLWSESILEGRKLSIYHLKSTLEKCPFLFGQSKKSKDFQFGSHLFLVEEQNVFIFGMECIVYEKNKEFIVFVSKADSTGFGSKGVSCNSLAFCCLVTLIDGLRKQGAENVTLTLFAIAQGQYLFPESVDNGQKHVLNDSGLLRWWVNCLEKLRKYYTDSEAPNDSEKQKNSTLLPKAYLFVPGLENIRSYLPNRHWIESNAITTGKAVEELPRFPDDPKCRYLCELQDEKSDMSVEEFWDTLTYRQECSSGKLVGFFTLQLQFYQTREFIAKDNFGDSGVMIPAKLYRVTYDTLLKHPFGSLSDAQSSTEKFLSNTLSAVQNLKDFHYKRYKLDICGLAKRDDRKNHNHSKPATQANILQPRKKVKK
B4: Rnh1 (enzyme, UniProt Q9UST8 1-264)
chain: MGGNKRAYYAVARGRNTGIYSTWDEASDQVKGYGGNRYKKFDSYEAAQEFCRTEGSRYSSSSGPYRRSTTSYGYSPYSSSSSNYSARHSDKYRKKISRSYSTEKDIEIFSNDTHEKSIACSDRQVVYADGSSLRNGKKGAVAGCGVFFGNDDPRNISVPLAGEEQTNNRAELQAIILALENTSGDLTIRSDSNYSIKSLTTWLPKWKKNDFKTSNSQPVKNLDLINRASDLMSDRNVSLEYVKGHSTDYGNQQADMLARRGASE
B5: Top1 (enzyme, UniProt P07799 1-814)
chain: MSSSDSDSVSLSIRRRQRRGSSKRISMKESDEESDSSENHPLSESLNKKSKSESDEDDIPIRKRRASSKKNMSNSSSKKRAKVMGNGGLKNGKKTAVVKEEEDFNEIAKPSPKHKRVSKANGSKNGAKSAVKKEESDTDDSVPLRAVSTVSLTPYKSELPSGASTTQNRSPNDEEDEDEDYKWWTSENIDDTQKWTTLEHNGVIFAPPYEPLPKNVKLIYDGNPVNLPPEAEEVAGFYAAMLETDHAKNPVFQDNFFRDFLKVCDECNFNHNIKEFSKCDFTQMFHHFEQKREEKKSMPKEQKKAIKQKKDEEEEKYKWCILDGRKEKVGNFRIEPPGLFRGRGSHPKTGSLKRRVYPEQITINIGEGVPVPEPLPGHQWAEVKHDNTVTWLATWHENINNNVKYVFLAAGSSLKGQSDLKKYEKSRKLKDYIDDIRKGYRKDLKSELTVERQRGTAMYLIDVFALRAGNEKGEDEADTVGCCSLRYEHVTLKPPRTVVFDFLGKDSIRYYNEVEVDPQVFKNLKIFKRPPKKEGDLIFDRLSTNSLNKYLTSLMDGLSAKVFRTYNASYTMAEELKKMPKNLTLADKILFYNRANRTVAILCNHQRSVTKNHDVQMERFAERIKALQYQRMRLRKMMLNLEPKLAKSKPELLAKEEGITDSWIVKHHETLYELEKEKIKKKFDRENEKLAAEDPKSVLPESELEVRLKAADELKKALDAELKSKKVDPGRSSMEQLEKRLNKLNERINVMRTQMIDKDENKTTALGTSKINYIDPRLTYSFSKREDVPIEKLFSKTIRDKFNWAADTPPDWKW

Target: Dbp2-HTP (S. pombe) (UniProt P24782)
Test: affinity purification with mass spectrometry

Row | Binder | binding
1 | B1 | no binding
2 | B2 | no binding
3 | B3 | no binding
4 | B4 | no binding
5 | B5 | no binding

Target: T1, Srp2-HTP (S. pombe)
Test: affinity purification with mass spectrometry

Row | Binder | binding
6 | B1 | no binding
7 | B2 | no binding
8 | B3 | no binding
9 | B4 | no binding
10 | B5 | no binding
